The nature of the assay: qHTS Assay to Find Inhibitors of Chronic Active B-Cell Receptor Signaling. As to conditions: ABC-DLBCL IkBa-CBG/CBR reporter, luminescence ratio (green luciferase fused to IkBa over red control in TMD8 lymphoma cells), 4 h. In a few lines: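 TMD8 human ABC-DLBCL cells with doxycycline-inducible IκBα–green luciferase fusion and unfused red luciferase, in 0.5% FBS medium; compounds up to 46 uM, 4 h at 37C. Green/red luminescence ratio, filter-overlap corrected, fitted to concentration-response curves.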

[1] abbreviates: measured here: CBR red luminescence, cell number.
[2] abbreviates: measured here: IkBa-CBG green luminescence.

The structures appear in SMILES notation. This is one part of the list. These are further read-outs of the screen, such as a control signal, another cell line or another target. No call is given for them. Compounds called inactive in the main read-out are mostly missing here. Words in brackets tell the shape of the fitted curve; partial curves, single points and poor fits give uncertain potencies.

By AC50 is commonly meant the midpoint of the concentration-response curve, whichever way the signal moves. With `Cc1ccc2nc(NC(=O)CSc3ncnc4c3oc3ccccc34)sc2c1`, the concentration at half-maximal activity (AC50) under setting [1] was 20.6 µM [falling, partial curve].

`COc1ccc(N2CCN(C(=O)c3c(-c4ccccc4)noc3C)CC2)cc1`: the half-maximal activity concentration (AC50) under setting [1] is 6.51 µM [falling, single point].

`COc1ccccc1N(CC(=O)N/N=C/c1c(O)ccc2ccccc12)S(C)(=O)=O`: the AC50 under setting [1] is 11.6 µM [falling, partial curve].

With `Cc1c(Cl)cccc1NC(=O)Nn1cnnc1`, under setting [1], the AC50 is 35.5 µM [falling, single point].

Consider `Cc1nccc(-c2cccc(NC(=O)c3ccccc3Cl)c2)n1`, for which the AC50 under setting [1] is 5.62 µM [falling, single point].

With `CCOC(=O)c1oc2ccccc2c1N`, under setting [1], the AC50 is 35.5 µM [rising, single point].

`O=C(c1cc(Cl)ccc1Cl)N1CCN(c2ccccn2)CC1`: under setting [1], the concentration at half-maximal activity (AC50) was 7.31 µM [falling, partial curve, poor fit].

As for `Fc1ccc2[nH]c3c(N4CCN(c5ccccc5)CC4)ncnc3c2c1`, under setting [1], the concentration at half-maximal activity (AC50) was 0.82 µM [falling, full curve, poor fit].

As to `Cc1ccc(C(=O)N/C(=C\c2cccs2)C(=O)N2CCCCCC2)cc1`, the AC50 under setting [1] was 3.55 µM [rising, partial curve, poor fit].

As to `O=C(CSc1nc2ccccc2s1)NCCOc1ccccc1`, under setting [1], the half-maximal activity concentration (AC50) was 8.2 µM [rising, partial curve].

Turning to `Cc1cccc(OCC(=O)N2CCN(c3nnc(-c4ccccc4)c4ccccc34)CC2)c1`, the AC50 under setting [1] was 3.98 µM [falling, full curve].

Regarding `O=C(Nc1cccnc1)c1cccc(-c2cc3ccccc3oc2=O)c1`, the AC50 under setting [1] was 0.794 µM [rising, full curve, poor fit].

For `Cc1onc(-c2c(F)cccc2Cl)c1C(=O)OCC(=O)NC1CC1`, under setting [1], the AC50 is 12.6 µM [rising, partial curve].

As to `CCc1nc(N)c(C#N)c(-c2ccncc2)c1C`, the AC50 under setting [1] is 20 µM [falling, partial curve, poor fit].

For `CCc1cc(=O)oc2c(C)c(OCC(=O)N3CCCc4ccccc43)ccc12`, the AC50 under setting [1] was 29.1 µM [falling, single point].

For the compound `CCOc1ccc(NC(=O)c2cc3ccccc3cc2O)cc1`, under setting [1], the AC50 is 35.5 µM [falling, single point].

As for `Cc1cc(NC(=O)CSc2nc3cc4c(cc3c(=O)n2CCc2ccccc2)OCO4)no1`, the AC50 under setting [1] was 29.1 µM [rising, single point].

For `CCn1c(=O)cc(OCC(=O)NCCc2ccc(OC)c(OC)c2)c2ccccc21`, under setting [1], the AC50 was 0.501 µM [rising, full curve, poor fit].

For the compound `Nc1c(C(=O)Nc2ccccc2)nnn1-c1ccc2c(c1)OCCO2`, the AC50 under setting [1] is 7.08 µM [falling, partial curve].

Regarding `COc1ccc(C(=O)N/N=C(\C)CC(=O)Nc2cccc(C(F)(F)F)c2)cc1`, the AC50 under setting [1] was 3.98 µM [falling, full curve].

For the compound `N#CC(c1ccc(Cl)cc1)c1ccc2c(C(F)(F)F)cc(C(F)(F)F)nc2n1` (stereo unspecified), the AC50 under setting [1] is 32.6 µM [falling, single point].

On to `COc1cccc(-c2ccc3ncnc(NCc4cccc(F)c4)c3c2)c1`, for which, under setting [1], the AC50 was 29.1 µM [falling, single point].

`CCC(=O)NC(=S)Nc1ccc(OC)cc1OC`: the AC50 under setting [1] was 32.6 µM [falling, single point].

Consider `CC(C)n1cnc2c(Nc3cccc(Cl)c3)nc(NCCCO)nc21`, for which, under setting [1], the AC50 is 14.1 µM [falling, single point].

In the case of `CCOC(=O)Cc1csc2nc(-c3ccccc3)nn12`, the AC50 under setting [2] is 2.82 µM [rising, partial curve, poor fit].

With `O=[N+]([O-])c1ccc(-c2nn(-c3ccccc3)cc2/C=N/n2c(-c3ccncc3)n[nH]c2=S)cc1`, the AC50 under setting [1] was 7.08 µM [rising, partial curve, poor fit].

For the compound `CCOc1ccc(NC(=O)C2C(c3ccccc3)C2(Cl)Cl)cc1` (stereo unspecified), the AC50 under setting [1] was 35.5 µM [falling, single point].

In the case of `Cc1ccc(CCNC(=O)c2cc(S(=O)(=O)N3CCCCC3)c[nH]2)cc1`, the half-maximal activity concentration (AC50) under setting [1] is 35.5 µM [falling, single point].

Regarding `NS(=O)(=O)c1ccc(CCNC(=O)c2cc(-c3ccc(Br)cc3)nc3ccccc23)cc1`, the AC50 under setting [1] is 0.562 µM [rising, full curve, poor fit].

For `COc1cccc(C(=O)c2c[nH]c(C(=O)NCc3cccs3)c2)c1`, the AC50 under setting [1] was 0.461 µM [falling, full curve, poor fit].

For the compound `O=C(c1ccc(F)cc1)c1ccc(N2CCCCC2)cc1`, the AC50 under setting [1] is 3.55 µM [rising, single point].

In the case of `C=CCNC(=O)CSc1nc2sc(C)c(C)c2c(=O)[nH]1`, under setting [1], the AC50 is 32.6 µM [rising, partial curve, poor fit].

Take `c1csc(-c2nc(NCC3CCCO3)c3ccccc3n2)c1` (stereo unspecified): under setting [1], the AC50 was 15.8 µM [falling, single point].

Turning to `COc1ccccc1CNC(=O)CSc1ccc(Br)cc1`, the AC50 under setting [1] was 4.11 µM [rising, full curve, poor fit] and the AC50 under setting [2] is 10.3 µM [falling, partial curve].

Regarding `Clc1cccc(-c2nc3nc4ccccc4nc3n2Cc2ccco2)c1`, the AC50 under setting [1] was 6.51 µM [falling, partial curve].

`CC(=O)Nc1ccc(OCC(O)Cn2c(C(C)C)nc3ccccc32)cc1` (stereo unspecified): the AC50 under setting [1] was 17.8 µM [rising, partial curve, poor fit].

As for `CC(=O)Nc1ccc(NC(=O)C(C)OC(=O)/C(C#N)=C/c2ccc(N(C)C)cc2)cc1` (stereo unspecified), under setting [1], the AC50 is 2.31 µM [rising, full curve].

In the case of `COc1ccc(C(C[N+](=O)[O-])c2c(C)cc3ccccn23)c(OC)c1` (stereo unspecified), the AC50 under setting [1] was 2.24 µM [falling, full curve].

Turning to `C=CCNC(=S)N/N=C/c1cccc([N+](=O)[O-])c1`, the AC50 under setting [2] was 25.1 µM [falling, single point].

With `Cc1[nH]c2ccccc2c1CCN(Cc1cccnc1)C(=S)Nc1cccc(F)c1`, the AC50 under setting [1] was 6.31 µM [rising, partial curve, poor fit].

As to `O=C(COc1cccc2ccccc12)Nc1ccc(Cl)cc1C(=O)O`, the AC50 under setting [1] is 2.82 µM [falling, full curve].

Turning to `COc1ccc(/C=C/C(=O)Oc2ccc(C)c(C)c2)cc1OC`, under setting [1], the AC50 was 35.5 µM [rising, single point].

Take `CCOC(=O)c1sc(N(Cc2ccccc2)C(=O)CSc2ncn[nH]2)nc1C`: under setting [1], the AC50 is 5.8 µM [falling, partial curve, poor fit].

As for `O=C(NCc1ccccc1)NC1(C(=O)Nc2ccc3c(c2)OCCO3)CCCCC1`, the AC50 under setting [1] was 11.2 µM [rising, partial curve, poor fit].

Regarding `COc1ccc(NC(=O)Cn2nnc(-c3ccc(CN4CCOCC4)cc3)n2)c(OC)c1`, the AC50 under setting [1] was 35.5 µM [rising, single point].

Regarding `c1cc(-c2cccs2)nc(-c2cccs2)c1`, under setting [1], the AC50 was 4.61 µM [rising, single point].

On to `O=C(/C=C/c1ccco1)Nc1sc2c(c1C(=O)O)CCC2`, for which the AC50 under setting [1] is 0.708 µM [falling, full curve].

Take `Cc1ccc(C)n1-c1ccc(C(=O)Nc2ccccc2F)cc1`: the AC50 under setting [1] is 8.91 µM [falling, partial curve].

As to `CCOC(=O)C1CCCN(c2cc(C)nc3cc(-c4ccc(Cl)cc4)nn23)C1` (stereo unspecified), under setting [1], the AC50 was 2.31 µM [rising, full curve, poor fit].

Take `Cc1ccc(C)c(NC(=O)CSc2nnc(NC(=O)C3CC3)s2)c1`: under setting [1], the AC50 was 0.794 µM [rising, full curve, poor fit].

Regarding `CCOC(=O)N1CCC(NC(=O)c2cn(-c3ccc(OC)cc3)c(=O)c3ccccc23)CC1`, under setting [1], the AC50 is 18.4 µM [falling, single point].

Regarding `O=c1oc2ccccc2c(O)c1C=NCc1ccccn1`, under setting [1], the concentration at half-maximal activity (AC50) was 11.6 µM [falling, partial curve, poor fit].

As for `Cc1cc(C)c(C(=O)/C=C/c2cccc3ccccc23)c(=O)[nH]1`, the AC50 under setting [1] is 4.11 µM [falling, full curve].

`COc1ccc2c(c1)CCC1C2=NN(/C(C)=C\C(C)=O)C1c1ccc(F)cc1` (stereo unspecified): the AC50 under setting [1] is 35.5 µM [falling, single point].

Consider `COc1cc(NC(=O)CSc2nc3ccccc3c(=O)n2C)ccc1NC(=O)c1ccco1`, for which the AC50 under setting [1] is 8.91 µM [falling, partial curve].

As to `COc1ccc(NS(=O)(=O)c2cc(NC(=O)CCNC(C)=O)ccc2N2CCOCC2)cc1`, the AC50 under setting [1] is 0.00461 µM [rising, full curve, poor fit].

In the case of `Nc1ccc(-c2nc3c(Cl)cc(N)cc3[nH]2)cc1`, the concentration at half-maximal activity (AC50) under setting [1] is 0.794 µM [falling, full curve, poor fit].

On to `CC(C)Cc1ccc(/C=C/C(=O)N2CCCCC2)cc1`, for which, under setting [1], the AC50 is 1.12 µM [rising, full curve].

For `O=c1[nH]c(CN2CCN(S(=O)(=O)c3ccc4c(c3)OCCO4)CC2)nc2sc3c(c12)CCCC3`, the AC50 under setting [1] was 13 µM [rising, partial curve, poor fit].

Turning to `CC(C)NC(=O)c1ccc2c(c1)S(=O)(=O)c1ccccc1C2=O`, the concentration at half-maximal activity (AC50) under setting [1] was 0.82 µM [rising, partial curve, poor fit].

For the compound `CN1CCC(N(C)C(=O)c2cc(-c3ccccc3Cl)nc3ccccc23)CC1`, the AC50 under setting [1] is 5.8 µM [rising, partial curve, poor fit].

Regarding `COc1ccccc1CN1C[C@@H]2C[C@@H](c3[nH]c4c(C)cccc4c3C)N3CCC[C@@]23C1=O`, the AC50 under setting [1] was 25.1 µM [falling, single point].

As to `O=C(Nc1cccc2ccccc12)c1ccc([N+](=O)[O-])s1`, under setting [1], the AC50 is 9.2 µM [falling, partial curve].

Take `O=S(=O)(Cc1ccc(Cl)cc1)C1CCCCC1O` (stereo unspecified): the AC50 under setting [1] was 35.5 µM [rising, single point].

As for `COc1ccc(-c2nc(CN3CCCCC3c3nccn3C)c(C)o2)c(C)c1C` (stereo unspecified), under setting [1], the AC50 is 35.5 µM [rising, single point].

Source of the values: PubChem BioAssay AID493014 (National Center for Advancing Translational Sciences (NCATS), 2011).
